PubChem BioAssay AID1224830 – NIAID, 2016

Test: 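Genes whose knock-down alters the TNF-alpha reporter response to LPS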 (primary screen)
Cells: human THP-1 monocytic leukaemia cells, TNF dual-luciferase reporter clone, PMA-differentiated to macrophage-like cells
Reagent: siRNA pool against human genes, 50 nM
Time to read-out: LPS for 4 h, given about 3 days after siRNA transfection
Treatment: bacterial LPS (TLR4 ligand), 10 ng/ml
Measured: 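TNF firefly reporter luminescence divided by renilla, normalised to the plate median, then turned into a robust z-score for each replicate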
Scale: TNF reporter robust z-score: higher = stronger TNF reporter response to LPS
Hit rule: 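a well is active when its z-score exceeds 2.8 or falls below -1.5; control wells carry no call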
This is one part, drawn at random, of about 18,000 reagents tested. About 2,900 of them (16%) were called active. 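Calls are made per well; low scores hint the gene aids the LPS response, high scores that it dampens it.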 Entries without a mark were called inactive. Repeated entries: four replicate wells of each siRNA pool.

Target gene,PubChem SID,TNF reporter robust z-score
SPIRE2 (spire type actin nucleation factor 2),SID315460381,0.33
SPIRE2 (spire type actin nucleation factor 2),SID315460381,1.35
SPIRE2 (spire type actin nucleation factor 2),SID315460381,0.11
SPIRE2 (spire type actin nucleation factor 2),SID315460381,-0.35
CT47A11 (cancer/testis antigen family 47 member A11),SID315463489,2.12
CT47A11 (cancer/testis antigen family 47 member A11),SID315463489,0.62
CT47A11 (cancer/testis antigen family 47 member A11),SID315463489,1.42
CT47A11 (cancer/testis antigen family 47 member A11),SID315463489,1.5
TAL1,SID315451750,-0.57
TAL1,SID315451750,0
TAL1,SID315451750,-0.62
TAL1,SID315451750,0.4
CES1 (carboxylesterase 1),SID315447881,2.09
CES1 (carboxylesterase 1),SID315447881,2.45
CES1 (carboxylesterase 1),SID315447881,1.45
CES1 (carboxylesterase 1),SID315447881,2.22
CMTM6 (CKLF like MARVEL transmembrane domain containing 6),SID315457263,0.44
CMTM6 (CKLF like MARVEL transmembrane domain containing 6),SID315457263,-0.65
CMTM6 (CKLF like MARVEL transmembrane domain containing 6),SID315457263,-0.28
CMTM6 (CKLF like MARVEL transmembrane domain containing 6),SID315457263,-0.54
DST (dystonin),SID315447577,1.9
DST (dystonin),SID315447577,0.44
DST (dystonin),SID315447577,1.7
DST (dystonin),SID315447577,-0.89
GPR162 (G protein-coupled receptor 162),SID315455986,-0.74
GPR162 (G protein-coupled receptor 162),SID315455986,-1
GPR162 (G protein-coupled receptor 162),SID315455986,-0.83
GPR162 (G protein-coupled receptor 162),SID315455986,-0.76
GLB1 (galactosidase beta 1),SID315448911,1.11
GLB1 (galactosidase beta 1),SID315448911,0.01
GLB1 (galactosidase beta 1),SID315448911,1.32
GLB1 (galactosidase beta 1),SID315448911,0.77
COL4A2 (collagen type IV alpha 2 chain),SID315448012,-0.98
COL4A2 (collagen type IV alpha 2 chain),SID315448012,-1.24
COL4A2 (collagen type IV alpha 2 chain),SID315448012,-1.06
COL4A2 (collagen type IV alpha 2 chain),SID315448012,-1.11
PTBP1 (polypyrimidine tract binding protein 1),SID315450923,-1.56 (active)
PTBP1 (polypyrimidine tract binding protein 1),SID315450923,-1.25
PTBP1 (polypyrimidine tract binding protein 1),SID315450923,-1.11
PTBP1 (polypyrimidine tract binding protein 1),SID315450923,-0.87
CALU (calumenin),SID315447680,0.51
CALU (calumenin),SID315447680,-0.08
CALU (calumenin),SID315447680,0.73
CALU (calumenin),SID315447680,1.31

Continued (7 carried over from the part before).
Target gene,PubChem SID,TNF reporter robust z-score
PTBP1 (polypyrimidine tract binding protein 1),SID315450923,-1.25
PTBP1 (polypyrimidine tract binding protein 1),SID315450923,-1.11
PTBP1 (polypyrimidine tract binding protein 1),SID315450923,-0.87
CALU (calumenin),SID315447680,0.51
CALU (calumenin),SID315447680,-0.08
CALU (calumenin),SID315447680,0.73
CALU (calumenin),SID315447680,1.31
"SPG11 (SPG11 vesicle trafficking associated, spatacsin)",SID315459699,-0.66
"SPG11 (SPG11 vesicle trafficking associated, spatacsin)",SID315459699,-1.48
"SPG11 (SPG11 vesicle trafficking associated, spatacsin)",SID315459699,-0.91
"SPG11 (SPG11 vesicle trafficking associated, spatacsin)",SID315459699,0.07
SLC35B4,SID315460568,-1.12
SLC35B4,SID315460568,-0.6
SLC35B4,SID315460568,-1.07
SLC35B4,SID315460568,-1.04
UNC93B1 (unc-93B1 regulator of TLR signaling),SID315459923,-0.28
UNC93B1 (unc-93B1 regulator of TLR signaling),SID315459923,-0.46
UNC93B1 (unc-93B1 regulator of TLR signaling),SID315459923,-1.1
UNC93B1 (unc-93B1 regulator of TLR signaling),SID315459923,-0.32
NR1D1 (nuclear receptor subfamily 1 group D member 1),SID315453392,-0.88
NR1D1 (nuclear receptor subfamily 1 group D member 1),SID315453392,-0.6
NR1D1 (nuclear receptor subfamily 1 group D member 1),SID315453392,-0.83
NR1D1 (nuclear receptor subfamily 1 group D member 1),SID315453392,-0.23
"METTL2B (methyltransferase 2B, tRNA N3-cytidine)",SID315457866,-0.02
"METTL2B (methyltransferase 2B, tRNA N3-cytidine)",SID315457866,0.47
"METTL2B (methyltransferase 2B, tRNA N3-cytidine)",SID315457866,0.56
"METTL2B (methyltransferase 2B, tRNA N3-cytidine)",SID315457866,-0.42
COX19 (cytochrome c oxidase assembly factor COX19),SID315460848,0.72
COX19 (cytochrome c oxidase assembly factor COX19),SID315460848,0.92
COX19 (cytochrome c oxidase assembly factor COX19),SID315460848,-0.11
COX19 (cytochrome c oxidase assembly factor COX19),SID315460848,1.19
TOMM20L (translocase of outer mitochondrial membrane 20 like),SID315464464,-0.85
TOMM20L (translocase of outer mitochondrial membrane 20 like),SID315464464,-1.35
TOMM20L (translocase of outer mitochondrial membrane 20 like),SID315464464,2.72
TOMM20L (translocase of outer mitochondrial membrane 20 like),SID315464464,-0.61
FTSJ1 (FtsJ RNA 2'-O-methyltransferase 1),SID315455438,0.09
FTSJ1 (FtsJ RNA 2'-O-methyltransferase 1),SID315455438,-0.42
FTSJ1 (FtsJ RNA 2'-O-methyltransferase 1),SID315455438,-0.85
FTSJ1 (FtsJ RNA 2'-O-methyltransferase 1),SID315455438,-0.63
